B1: TAK1 (protein, UniProt O43318 1-606)
chain: MSTASAASSSSSSSAGEMIEAPSQVLNFEEIDYKEIEVEEVVGRGAFGVVCKAKWRAKDVAIKQIESESERKAFIVELRQLSRVNHPNIVKLYGACLNPVCLVMEYAEGGSLYNVLHGAEPLPYYTAAHAMSWCLQCSQGVAYLHSMQPKALIHRDLKPPNLLLVAGGTVLKICDFGTACDIQTHMTNNKGSAAWMAPEVFEGSNYSEKCDVFSWGIILWEVITRRKPFDEIGGPAFRIMWAVHNGTRPPLIKNLPKPIESLMTRCWSKDPSQRPSMEEIVKIMTHLMRYFPGADEPLQYPCQYSDEGQSNSATSTGSFMDIASTNTSNKSDTNMEQVPATNDTIKRLESKLLKNQAKQQSESGRLSLGASRGSSVESLPPTSEGKRMSADMSEIEARIAATTAYSKPKRGHRKTASFGNILDVPEIVISGNGQPRRRSIQDLTVTGTEPGQVSSRSSSPSVRMITTSGPTSEKPTRSHPWTPDDSTDTNGSDNSIPMAYLTLDHQLQPLAPCPNSKESMAVFEQHCKMAQEYMKVQTEIALLLQRKQELVAELDQDEKDQQNTSRLVQEHKKLLDENKSLSTYYQQCKKQLEVIRSQQQKRQGTS

By UniProt entry, the sequences of proteins in these tests, tags left out.
UniProt Q96LD4: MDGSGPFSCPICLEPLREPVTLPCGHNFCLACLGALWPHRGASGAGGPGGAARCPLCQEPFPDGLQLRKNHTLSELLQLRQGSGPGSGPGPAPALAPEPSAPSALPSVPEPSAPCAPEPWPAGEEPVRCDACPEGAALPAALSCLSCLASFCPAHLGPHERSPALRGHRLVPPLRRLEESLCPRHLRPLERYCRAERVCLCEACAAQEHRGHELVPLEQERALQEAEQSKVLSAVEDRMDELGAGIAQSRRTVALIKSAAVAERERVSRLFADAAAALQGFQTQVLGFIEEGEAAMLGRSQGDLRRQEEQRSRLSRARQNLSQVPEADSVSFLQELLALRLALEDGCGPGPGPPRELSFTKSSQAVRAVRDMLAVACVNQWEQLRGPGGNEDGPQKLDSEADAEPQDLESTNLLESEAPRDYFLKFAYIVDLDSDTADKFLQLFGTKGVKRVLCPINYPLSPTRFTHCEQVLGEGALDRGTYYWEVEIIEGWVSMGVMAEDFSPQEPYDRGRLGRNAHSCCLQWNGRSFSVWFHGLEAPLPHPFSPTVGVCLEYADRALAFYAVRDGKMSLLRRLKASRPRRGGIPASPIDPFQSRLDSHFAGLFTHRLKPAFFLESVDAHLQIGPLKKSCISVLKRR
UniProt Q9Y6K9: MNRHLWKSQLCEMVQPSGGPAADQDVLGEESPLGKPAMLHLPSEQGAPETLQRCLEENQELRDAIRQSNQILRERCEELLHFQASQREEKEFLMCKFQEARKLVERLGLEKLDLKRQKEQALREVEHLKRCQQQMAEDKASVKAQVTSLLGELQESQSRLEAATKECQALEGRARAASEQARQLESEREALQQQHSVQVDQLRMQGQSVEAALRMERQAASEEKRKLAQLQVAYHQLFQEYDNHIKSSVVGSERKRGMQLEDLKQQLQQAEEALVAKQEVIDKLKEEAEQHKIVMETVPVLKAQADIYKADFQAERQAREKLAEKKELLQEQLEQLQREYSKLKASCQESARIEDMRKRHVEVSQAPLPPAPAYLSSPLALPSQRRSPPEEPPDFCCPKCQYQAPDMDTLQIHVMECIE
UniProt P25963: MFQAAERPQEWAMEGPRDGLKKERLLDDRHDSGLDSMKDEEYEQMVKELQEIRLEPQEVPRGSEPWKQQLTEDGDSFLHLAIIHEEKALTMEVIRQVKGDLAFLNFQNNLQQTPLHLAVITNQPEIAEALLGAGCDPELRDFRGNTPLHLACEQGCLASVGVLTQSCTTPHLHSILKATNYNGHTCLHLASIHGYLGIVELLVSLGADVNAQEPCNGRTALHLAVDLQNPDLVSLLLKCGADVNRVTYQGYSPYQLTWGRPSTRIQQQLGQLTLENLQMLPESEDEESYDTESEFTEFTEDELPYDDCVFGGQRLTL

No constants are given. Whether binding was seen depends on the method and setting. In cells and extracts the contact can be indirect.

The assay addresses Flag-TRIM47 (human) (UniProt Q96LD4). The assay is described as follows: co-IP; HUVECs transfected with Flag or Flag-TRIM47 plasmid for 48 h, MG132 10 μM for 1 h before harvesting, TNFα 10 ng/mL for 15 min; whole-cell lysates immunoprecipitated with Flag antibody, protein G-agarose (2 h, 4 °C); precipitates immunoblotted.
As to IKKγ (from UniProt Q9Y6K9 1-419), the binding result is on record as “no binding”. To IκBα (from UniProt P25963 1-317) belongs “no binding”. Consider B1, for which the binding result is given as “no binding”.

The record behind these values is PMC9072678.
